Laboratory results from PMC7819943, “Rice protein-binding microarrays: a tool to detect cis-acting elements near promoter regions in rice”.
This is one part of the list.

Chains of the proteins cited; added tags and fusions are not shown.
UniProt Q0JBA9, entry or part of it: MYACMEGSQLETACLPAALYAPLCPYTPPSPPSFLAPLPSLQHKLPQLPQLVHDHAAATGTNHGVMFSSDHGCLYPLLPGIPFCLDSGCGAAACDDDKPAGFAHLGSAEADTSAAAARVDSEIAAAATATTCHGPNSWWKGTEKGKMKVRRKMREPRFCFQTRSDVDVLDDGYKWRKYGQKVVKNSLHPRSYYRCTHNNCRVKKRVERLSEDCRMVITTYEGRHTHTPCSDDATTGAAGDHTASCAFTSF

target: OsWRKY34 (Oryza sativa, UniProt Q0JBA9 1-250); test: protein-binding microarray (RPBM); PBS, 2% BSA, 51.3 ng/ul salmon testes DNA, 50 uM zinc acetate, 200 nM TF, 25 C, 1 h; high values mean tight binding; details: protein: recombinant; tags: N-terminal polyhistidine and DsRed monomer fusion (pET32a); label: CyDye5-dUTP incorporated in the synthesized complementary strand; 3' TTTTT single-stranded linker to array surface; dsDNA, one strand shown
Summary of the method: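 An Axon 4000B scanner gave the binding signal as per-feature fluorescence intensity in arbitrary units. This followed washing of a custom Agilent array that had been incubated for 1 h at 25 °C with 200 nM protein in PBS, 2% BSA, salmon testes DNA and 50 µM zinc acetate. The proteins were transcription factors fused at the N-terminus to polyhistidine and DsRed, expressed in E. coli BL21-CodonPlus and purified on Ni–NTA.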

Sequence	binding signal
TTGGCTTGTAGTAGTTGCATTTTTTTACCAGTTTTCGTTTCGGAGTCACCTAGTGCAG	14800 fluorescence intensity (a.u.)
GTCACTTGGCGCCTCTTTCACCTCTCGCATGGCCGCCAAACGGAGTCACCTAGTGCAG	8610 fluorescence intensity (a.u.)
CTTTATATTTACGGGGTGTGGATGATGCTTTTGACGTGTGCGGAGTCACCTAGTGCAG	8930 fluorescence intensity (a.u.)
TTGTATTCTTCCAAGTTACTTGCATGTCTGAAACAATTTACGGAGTCACCTAGTGCAG	9920 fluorescence intensity (a.u.)
CCCCATCATTTCTTGCTTCCTCAGCTGCTTCTTCCTCCTTCGGAGTCACCTAGTGCAG	11900 fluorescence intensity (a.u.)
CTCTCTCTCTCTCTTCACGCTTCCCACGCGCGACACGAGGCGGAGTCACCTAGTGCAG	8240 fluorescence intensity (a.u.)
GTCTTTTTTGCTGTTGGGTCCCTTGAAGAGTTTGTATTTACGGAGTCACCTAGTGCAG	9300 fluorescence intensity (a.u.)
CCATCGAAGTTTCAAATTTTACTGTTCTATGTGTTCATTCCGGAGTCACCTAGTGCAG	9980 fluorescence intensity (a.u.)
ATGTACTCCCTCCGTTTCAAAATGTTTGACACCGTTGACTCGGAGTCACCTAGTGCAG	12300 fluorescence intensity (a.u.)
TGGTTTATTGTATCATCTCGGTCTAAAGCTGCGTTTGACCCGGAGTCACCTAGTGCAG	8860 fluorescence intensity (a.u.)
CATGCAGAAGTTGTGTTATTCTTTTTTGGGTGATTTTTTTCGGAGTCACCTAGTGCAG	8820 fluorescence intensity (a.u.)
GCATTGTAGCTAGGGGCCTATTGTAGACCTTATGAGTTTTCGGAGTCACCTAGTGCAG	8830 fluorescence intensity (a.u.)
TATGGGCCATCTATTTATTTGTCAAGTGTCTGGCTTTTTCCGGAGTCACCTAGTGCAG	11300 fluorescence intensity (a.u.)
GTAAAACTTCGCCACCGCTAATCGATTAACTTCGCCACCGCGGAGTCACCTAGTGCAG	9080 fluorescence intensity (a.u.)
AACCGCTCGCCTTAAATTCTCCAAACCGAAAACCATTTCCCGGAGTCACCTAGTGCAG	8890 fluorescence intensity (a.u.)
ACTGGTATTTGTCTGGCTCAAATCCTTTATCCAGTAATCTCGGAGTCACCTAGTGCAG	8960 fluorescence intensity (a.u.)
ACTTTTCTGTTTGTGTTTTCTGCGGTTTAAAAGTTAGTGTCGGAGTCACCTAGTGCAG	12700 fluorescence intensity (a.u.)
ATGGTCTCAGTTTTTTTTTGCTAGTGAACAGGAGGTTGTTCGGAGTCACCTAGTGCAG	8680 fluorescence intensity (a.u.)
AAAACCCTAGCTCTAGCCCATTCCGCCGCCCTCTCGCTCTCGGAGTCACCTAGTGCAG	8250 fluorescence intensity (a.u.)
AACCCATGTCATCAATGTTGAGCTGTCCCGTGATTTGTTCCGGAGTCACCTAGTGCAG	10000 fluorescence intensity (a.u.)
GCGTAACCACCTTTCTTCCATTAATTTTGACAATTTGACCCGGAGTCACCTAGTGCAG	9060 fluorescence intensity (a.u.)

Sequence	binding signal
CACCCTCCTCCACATCGCCGCTGGTCGTCGCTGCTCCGCGCGGAGTCACCTAGTGCAG	8280 fluorescence intensity (a.u.)
CGATCTCAGCTGTCACTCACTATGTGGTTCATCTAACTGACGGAGTCACCTAGTGCAG	9510 fluorescence intensity (a.u.)
AGAAATGGGGTTACTTACCATTCAACGCCGCTCTCACTCTCGGAGTCACCTAGTGCAG	8760 fluorescence intensity (a.u.)
CACACACGAGACAATGGGGTAATTCTTTGTTTTAGATTCACGGAGTCACCTAGTGCAG	8630 fluorescence intensity (a.u.)
TCTTTCATTGAAACCTTTCGCTATATATTTCTAGTCATTTCGGAGTCACCTAGTGCAG	9220 fluorescence intensity (a.u.)
ATCTTTACTAAACTTCGACTGGCTTTACGCCGGTCCCAGACGGAGTCACCTAGTGCAG	8480 fluorescence intensity (a.u.)
GCACGATCCATCCATCCACGCCACGCTGAATACTTCGCTCCGGAGTCACCTAGTGCAG	8700 fluorescence intensity (a.u.)
TGTGGCTGTCCGATTTGAGGGCATTTGTTTCCGTCTTTTTCGGAGTCACCTAGTGCAG	9790 fluorescence intensity (a.u.)
CCCTCGCCTGCTCCGGTCGCCGCCGCTTTGCCGGCCTACTCGGAGTCACCTAGTGCAG	8230 fluorescence intensity (a.u.)
ACCTCGCCGCGTCGGCTGCTCCGAATGGTGGTCGGTCTCCCGGAGTCACCTAGTGCAG	8660 fluorescence intensity (a.u.)
TTCCAACAATGCGCCCACGTCCGGGTAACATCCGGCGCTTCGGAGTCACCTAGTGCAG	8300 fluorescence intensity (a.u.)
TTCTTCCCAATGGACGCTTCCACAAAACTCTTCGTGCTTACGGAGTCACCTAGTGCAG	8080 fluorescence intensity (a.u.)
TCAAAGATTGGGCTTTGACCCGGCTTTGGCCGTCGTTGACCGGAGTCACCTAGTGCAG	9770 fluorescence intensity (a.u.)
GTTTTAGATAAGATTGAAGTCAAACTTTTATAACTTTGACCGGAGTCACCTAGTGCAG	8210 fluorescence intensity (a.u.)
ATAGACAACCCGCTTCTCTCTCTTATGTTACTGTCAGGGGCGGAGTCACCTAGTGCAG	13600 fluorescence intensity (a.u.)
CTCCATCGCGCCGCCTACCACCGATTCCCTGCCGCATCTGCGGAGTCACCTAGTGCAG	9620 fluorescence intensity (a.u.)
CCTCCTCCGGCTCCATCAGCTCGTCACGACCGGCGTCTCTCGGAGTCACCTAGTGCAG	8780 fluorescence intensity (a.u.)
AAGACGAAAGGTCAAACGTTTGTTAAAAAGTCAACGGCGTCGGAGTCACCTAGTGCAG	9930 fluorescence intensity (a.u.)
CCATTTTTCAGACTGTGTTGTTCTTGCTGGGCACTTTTCCCGGAGTCACCTAGTGCAG	13300 fluorescence intensity (a.u.)
TCCTGTCTCTTGGTTCGGGTGATTCTTTCTTCCTTTCTGGCGGAGTCACCTAGTGCAG	9260 fluorescence intensity (a.u.)
TTAGCCCTTTTGCTTCATATGTTTGACCAGATGCTTTCAACGGAGTCACCTAGTGCAG	9290 fluorescence intensity (a.u.)

Rewritten bar-delimited: part of the list above
Sequence | binding signal
GTAAAACTTCGCCACCGCTAATCGATTAACTTCGCCACCGCGGAGTCACCTAGTGCAG | 9080 fluorescence intensity (a.u.)
AACCGCTCGCCTTAAATTCTCCAAACCGAAAACCATTTCCCGGAGTCACCTAGTGCAG | 8890 fluorescence intensity (a.u.)
ACTGGTATTTGTCTGGCTCAAATCCTTTATCCAGTAATCTCGGAGTCACCTAGTGCAG | 8960 fluorescence intensity (a.u.)
ACTTTTCTGTTTGTGTTTTCTGCGGTTTAAAAGTTAGTGTCGGAGTCACCTAGTGCAG | 12700 fluorescence intensity (a.u.)
ATGGTCTCAGTTTTTTTTTGCTAGTGAACAGGAGGTTGTTCGGAGTCACCTAGTGCAG | 8680 fluorescence intensity (a.u.)
AAAACCCTAGCTCTAGCCCATTCCGCCGCCCTCTCGCTCTCGGAGTCACCTAGTGCAG | 8250 fluorescence intensity (a.u.)
AACCCATGTCATCAATGTTGAGCTGTCCCGTGATTTGTTCCGGAGTCACCTAGTGCAG | 10000 fluorescence intensity (a.u.)
GCGTAACCACCTTTCTTCCATTAATTTTGACAATTTGACCCGGAGTCACCTAGTGCAG | 9060 fluorescence intensity (a.u.)
CACCCTCCTCCACATCGCCGCTGGTCGTCGCTGCTCCGCGCGGAGTCACCTAGTGCAG | 8280 fluorescence intensity (a.u.)
CGATCTCAGCTGTCACTCACTATGTGGTTCATCTAACTGACGGAGTCACCTAGTGCAG | 9510 fluorescence intensity (a.u.)
AGAAATGGGGTTACTTACCATTCAACGCCGCTCTCACTCTCGGAGTCACCTAGTGCAG | 8760 fluorescence intensity (a.u.)
CACACACGAGACAATGGGGTAATTCTTTGTTTTAGATTCACGGAGTCACCTAGTGCAG | 8630 fluorescence intensity (a.u.)
